Results as given in paper PMC10603234.
No constants are given. Whether binding was seen depends on the method and setting. Binding seen in cells or lysates may run through a third protein. Some results given as binding are weak or reduced against the parent protein; the word gives no strength.

Sequences of proteins named here, by UniProt entry; tags and fusion partners are left off. A change or cut given only in a name is not applied to a line headed by its entry.
UniProt P14416: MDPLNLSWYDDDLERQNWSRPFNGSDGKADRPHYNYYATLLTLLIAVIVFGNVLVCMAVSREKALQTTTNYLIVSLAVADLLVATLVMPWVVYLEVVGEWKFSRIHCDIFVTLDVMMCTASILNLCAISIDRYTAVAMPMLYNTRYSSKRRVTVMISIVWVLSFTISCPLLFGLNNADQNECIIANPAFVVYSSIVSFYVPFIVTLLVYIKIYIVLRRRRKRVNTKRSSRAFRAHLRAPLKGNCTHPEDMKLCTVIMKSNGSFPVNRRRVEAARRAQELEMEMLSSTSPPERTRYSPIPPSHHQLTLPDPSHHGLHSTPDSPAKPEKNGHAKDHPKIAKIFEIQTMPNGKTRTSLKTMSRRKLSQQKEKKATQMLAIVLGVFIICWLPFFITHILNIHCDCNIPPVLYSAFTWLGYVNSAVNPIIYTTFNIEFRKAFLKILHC
UniProt P30559: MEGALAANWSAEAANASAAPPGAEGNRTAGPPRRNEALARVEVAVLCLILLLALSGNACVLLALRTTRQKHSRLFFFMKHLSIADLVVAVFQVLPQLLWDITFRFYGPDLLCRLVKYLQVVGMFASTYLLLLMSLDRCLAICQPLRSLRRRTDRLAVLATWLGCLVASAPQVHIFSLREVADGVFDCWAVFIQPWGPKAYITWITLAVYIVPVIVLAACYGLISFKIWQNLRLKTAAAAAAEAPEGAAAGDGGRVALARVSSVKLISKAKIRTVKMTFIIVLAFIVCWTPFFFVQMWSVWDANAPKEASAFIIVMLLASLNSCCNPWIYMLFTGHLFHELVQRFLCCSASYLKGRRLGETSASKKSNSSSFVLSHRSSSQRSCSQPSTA

Molecular target: D2R-Rluc (UniProt P14416)
Assay: FRET or BRET; BRET2 saturation in HEK293T cells co-transfected with constant D2R-Rluc (1 ug) and increasing OXTR-GFP2 (0.25-9 ug) plasmid, coelenterazine-400a; vehicle or oxytocin (100 nM) + quinpirole (200 nM); also fixed-ratio cells with D2R and OXTR agonists and antagonists

OXTR-GFP2 (from UniProt P30559 1-389) (receptor)
binding: binds
